Results: the supplement of paper PMC10849652
This is one part of the list.

The chains behind the UniProt entries cited, without tags or fusion partners. Where a name states a change or a piece, a line headed by the entry shows the natural chain unless it says otherwise.
UniProt Q13952: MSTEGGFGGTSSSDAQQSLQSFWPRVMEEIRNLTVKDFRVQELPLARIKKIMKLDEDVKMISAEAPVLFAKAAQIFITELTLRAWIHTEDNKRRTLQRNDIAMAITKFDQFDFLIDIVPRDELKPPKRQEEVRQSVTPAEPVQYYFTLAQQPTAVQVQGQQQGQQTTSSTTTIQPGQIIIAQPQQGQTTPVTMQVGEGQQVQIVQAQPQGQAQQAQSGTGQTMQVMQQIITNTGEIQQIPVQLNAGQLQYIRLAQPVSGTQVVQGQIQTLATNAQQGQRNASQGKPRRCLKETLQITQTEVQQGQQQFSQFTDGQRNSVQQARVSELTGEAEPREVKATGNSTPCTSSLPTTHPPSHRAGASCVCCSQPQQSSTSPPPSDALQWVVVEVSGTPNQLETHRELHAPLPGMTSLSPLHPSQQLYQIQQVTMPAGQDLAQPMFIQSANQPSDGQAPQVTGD
UniProt Q6P4R8, whole entry, looked up: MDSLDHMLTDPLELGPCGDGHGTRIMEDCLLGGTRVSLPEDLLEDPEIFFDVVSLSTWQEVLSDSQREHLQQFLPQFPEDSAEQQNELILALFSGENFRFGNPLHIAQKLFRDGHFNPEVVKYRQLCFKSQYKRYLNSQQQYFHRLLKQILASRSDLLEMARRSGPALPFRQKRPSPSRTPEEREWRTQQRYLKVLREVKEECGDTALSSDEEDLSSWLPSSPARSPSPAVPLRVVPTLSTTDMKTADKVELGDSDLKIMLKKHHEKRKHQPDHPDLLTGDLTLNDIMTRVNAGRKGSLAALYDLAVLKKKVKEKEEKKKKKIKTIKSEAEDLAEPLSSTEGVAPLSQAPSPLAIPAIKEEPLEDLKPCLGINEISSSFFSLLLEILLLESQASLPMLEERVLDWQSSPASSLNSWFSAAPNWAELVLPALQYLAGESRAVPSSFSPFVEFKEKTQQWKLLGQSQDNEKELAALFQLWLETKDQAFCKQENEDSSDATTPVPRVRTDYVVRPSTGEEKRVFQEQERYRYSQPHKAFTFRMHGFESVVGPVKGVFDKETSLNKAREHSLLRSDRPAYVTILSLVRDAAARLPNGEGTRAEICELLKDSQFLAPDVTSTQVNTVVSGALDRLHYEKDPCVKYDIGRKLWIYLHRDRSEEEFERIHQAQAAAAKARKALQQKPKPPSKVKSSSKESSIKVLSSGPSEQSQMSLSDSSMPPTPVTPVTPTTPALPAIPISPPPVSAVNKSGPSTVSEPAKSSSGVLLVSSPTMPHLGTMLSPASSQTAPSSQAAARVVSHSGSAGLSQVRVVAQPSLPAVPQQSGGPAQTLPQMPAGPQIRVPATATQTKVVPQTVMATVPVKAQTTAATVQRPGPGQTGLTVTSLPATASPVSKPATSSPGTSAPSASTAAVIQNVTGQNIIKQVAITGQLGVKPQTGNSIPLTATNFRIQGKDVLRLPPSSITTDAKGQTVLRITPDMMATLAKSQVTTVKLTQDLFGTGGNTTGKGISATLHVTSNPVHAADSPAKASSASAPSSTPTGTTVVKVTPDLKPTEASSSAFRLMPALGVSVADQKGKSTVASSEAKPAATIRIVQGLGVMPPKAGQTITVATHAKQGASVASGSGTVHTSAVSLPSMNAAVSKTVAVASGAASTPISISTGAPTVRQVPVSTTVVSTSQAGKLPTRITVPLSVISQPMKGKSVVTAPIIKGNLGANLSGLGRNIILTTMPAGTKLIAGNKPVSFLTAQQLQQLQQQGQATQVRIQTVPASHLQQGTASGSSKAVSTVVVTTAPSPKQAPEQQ
UniProt Q9NVZ3: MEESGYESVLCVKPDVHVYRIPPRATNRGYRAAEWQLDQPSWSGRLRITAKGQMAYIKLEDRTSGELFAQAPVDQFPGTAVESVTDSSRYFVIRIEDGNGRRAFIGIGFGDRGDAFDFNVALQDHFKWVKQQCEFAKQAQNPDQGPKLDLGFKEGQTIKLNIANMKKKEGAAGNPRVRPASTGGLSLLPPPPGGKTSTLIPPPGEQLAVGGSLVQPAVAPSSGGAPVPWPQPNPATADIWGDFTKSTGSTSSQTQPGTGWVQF
UniProt P30414: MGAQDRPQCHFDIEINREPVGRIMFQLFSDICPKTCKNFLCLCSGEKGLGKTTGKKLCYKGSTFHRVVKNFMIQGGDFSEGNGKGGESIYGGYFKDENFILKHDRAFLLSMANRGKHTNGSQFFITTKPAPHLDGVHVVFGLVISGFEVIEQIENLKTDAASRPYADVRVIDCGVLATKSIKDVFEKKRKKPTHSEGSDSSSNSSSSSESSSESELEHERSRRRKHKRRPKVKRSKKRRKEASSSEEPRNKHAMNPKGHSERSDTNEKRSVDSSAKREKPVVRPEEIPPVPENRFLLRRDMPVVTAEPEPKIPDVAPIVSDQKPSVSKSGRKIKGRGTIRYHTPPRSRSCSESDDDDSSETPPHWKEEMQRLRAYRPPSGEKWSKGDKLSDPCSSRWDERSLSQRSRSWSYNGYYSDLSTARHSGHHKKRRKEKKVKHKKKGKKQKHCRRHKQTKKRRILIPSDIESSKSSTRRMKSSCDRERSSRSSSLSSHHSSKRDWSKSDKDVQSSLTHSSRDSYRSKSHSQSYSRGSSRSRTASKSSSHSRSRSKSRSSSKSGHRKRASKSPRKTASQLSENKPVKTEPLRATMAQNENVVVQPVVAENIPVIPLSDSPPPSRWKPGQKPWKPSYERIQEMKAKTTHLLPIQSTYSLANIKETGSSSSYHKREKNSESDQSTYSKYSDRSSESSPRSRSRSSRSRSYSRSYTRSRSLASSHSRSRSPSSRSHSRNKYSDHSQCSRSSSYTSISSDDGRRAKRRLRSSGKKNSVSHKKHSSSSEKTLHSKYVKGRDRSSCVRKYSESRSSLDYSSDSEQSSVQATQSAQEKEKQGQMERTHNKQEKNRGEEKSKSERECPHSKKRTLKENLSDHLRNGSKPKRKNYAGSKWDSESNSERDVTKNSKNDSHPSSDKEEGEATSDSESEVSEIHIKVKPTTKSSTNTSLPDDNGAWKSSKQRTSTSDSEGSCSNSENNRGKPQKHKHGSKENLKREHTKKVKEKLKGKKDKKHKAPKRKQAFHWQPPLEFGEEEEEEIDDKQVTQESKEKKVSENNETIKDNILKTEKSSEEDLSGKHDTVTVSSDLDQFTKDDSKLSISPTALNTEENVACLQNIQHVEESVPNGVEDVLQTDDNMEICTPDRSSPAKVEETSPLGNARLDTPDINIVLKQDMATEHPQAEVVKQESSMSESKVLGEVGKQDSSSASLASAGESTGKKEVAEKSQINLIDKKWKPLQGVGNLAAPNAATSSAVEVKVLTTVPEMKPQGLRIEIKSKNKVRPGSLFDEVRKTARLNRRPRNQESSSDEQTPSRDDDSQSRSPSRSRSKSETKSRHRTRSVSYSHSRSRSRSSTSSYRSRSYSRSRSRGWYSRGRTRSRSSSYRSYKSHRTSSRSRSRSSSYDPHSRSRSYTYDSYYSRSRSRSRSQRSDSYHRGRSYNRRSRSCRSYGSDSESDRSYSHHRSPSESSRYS
UniProt Q16236, whole entry, looked up: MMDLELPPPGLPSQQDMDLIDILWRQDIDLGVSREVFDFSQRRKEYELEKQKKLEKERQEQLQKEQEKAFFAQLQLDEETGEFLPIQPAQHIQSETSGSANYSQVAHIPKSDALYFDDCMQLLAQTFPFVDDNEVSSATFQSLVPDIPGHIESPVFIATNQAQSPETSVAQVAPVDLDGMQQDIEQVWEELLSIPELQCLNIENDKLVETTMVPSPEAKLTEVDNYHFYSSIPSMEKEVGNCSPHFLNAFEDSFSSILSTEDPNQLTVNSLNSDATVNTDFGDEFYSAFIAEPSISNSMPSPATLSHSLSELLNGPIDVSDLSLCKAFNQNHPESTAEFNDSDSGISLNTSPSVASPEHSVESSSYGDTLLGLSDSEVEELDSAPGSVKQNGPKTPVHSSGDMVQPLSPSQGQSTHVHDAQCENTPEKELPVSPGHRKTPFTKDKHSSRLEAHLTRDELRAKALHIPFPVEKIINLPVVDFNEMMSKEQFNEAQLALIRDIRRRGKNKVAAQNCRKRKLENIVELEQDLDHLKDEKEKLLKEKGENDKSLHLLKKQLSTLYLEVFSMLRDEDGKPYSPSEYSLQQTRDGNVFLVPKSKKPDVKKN
UniProt Q9UN36: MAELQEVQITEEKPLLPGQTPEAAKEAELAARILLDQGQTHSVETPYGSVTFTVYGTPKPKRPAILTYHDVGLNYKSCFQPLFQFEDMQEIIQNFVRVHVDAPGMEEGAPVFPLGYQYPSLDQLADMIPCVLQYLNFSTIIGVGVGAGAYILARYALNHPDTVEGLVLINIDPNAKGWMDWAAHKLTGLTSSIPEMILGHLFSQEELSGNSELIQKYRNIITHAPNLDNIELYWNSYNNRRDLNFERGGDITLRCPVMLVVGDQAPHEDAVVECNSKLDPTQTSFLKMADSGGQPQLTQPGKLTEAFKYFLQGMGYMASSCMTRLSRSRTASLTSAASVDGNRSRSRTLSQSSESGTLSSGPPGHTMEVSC
UniProt Q8NEJ9: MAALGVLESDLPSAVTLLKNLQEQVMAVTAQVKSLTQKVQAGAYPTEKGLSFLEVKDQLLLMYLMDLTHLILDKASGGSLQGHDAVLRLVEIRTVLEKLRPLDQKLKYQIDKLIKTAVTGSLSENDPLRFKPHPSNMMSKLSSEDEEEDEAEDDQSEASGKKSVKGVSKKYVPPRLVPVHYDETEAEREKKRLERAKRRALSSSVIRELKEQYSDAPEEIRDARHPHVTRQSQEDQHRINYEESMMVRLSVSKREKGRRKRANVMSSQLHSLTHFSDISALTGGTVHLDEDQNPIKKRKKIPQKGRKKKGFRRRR
UniProt P49821, whole entry, looked up: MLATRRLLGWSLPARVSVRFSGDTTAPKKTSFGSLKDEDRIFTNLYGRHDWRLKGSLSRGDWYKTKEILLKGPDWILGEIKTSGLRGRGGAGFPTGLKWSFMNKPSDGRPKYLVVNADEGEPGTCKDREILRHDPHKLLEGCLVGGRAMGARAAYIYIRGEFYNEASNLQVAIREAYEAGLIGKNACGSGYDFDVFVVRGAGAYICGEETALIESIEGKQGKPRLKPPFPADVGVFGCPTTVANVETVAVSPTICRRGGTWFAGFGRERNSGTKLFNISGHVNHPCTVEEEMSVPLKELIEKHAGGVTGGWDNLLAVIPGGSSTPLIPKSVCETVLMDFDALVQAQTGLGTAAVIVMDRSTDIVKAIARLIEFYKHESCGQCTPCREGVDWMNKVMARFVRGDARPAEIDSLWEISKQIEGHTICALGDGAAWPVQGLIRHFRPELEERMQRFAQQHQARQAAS

Columns and labels:
Test in all cases: log2 fold change, soluble protein after heating vs DMSO (PISA); higher = thermal stabilisation; K562 lysate, 10 uM; active = over 0.2 and 3.5 SD of the protein, either way, in both replicates (recomputed)
vorinostat = compound: O=C(CCCCCCC(=O)Nc1ccccc1)NO [vorinostat]
In short: (§1)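 A 30 min treatment with 10 μM compound was applied to crude K562 extract at 1 mg/mL protein in PBS pH 7.4 with 1 mM MgCl2. Heating for 3 min spanned 48°C-58°C, after which aliquots were pooled, adjusted to 0.5% NP-40 at 4°C and spun at 21,000xg for 90 min. TMTpro 16plex LC-MS/MS of the supernatant, with channel sums equalised, gave values recorded as log-two fold change in thermal stability against solvent controls, from duplicates.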

silmitasertib = compound: O=C(O)c1ccc2c(c1)nc(Nc1cccc(Cl)c1)c1ccncc12 [silmitasertib]
In short: as §1

[1] = compound: O=C1NC(=O)C(c2cnc3ccccn23)=C1c1cn2c3c(cc(F)cc13)CN(C(=O)N1CCCCC1)CC2
In short: as §1

entospletinib = compound: c1cn2cc(-c3ccc4cn[nH]c4c3)nc(Nc3ccc(N4CCOCC4)cc3)c2n1 [entospletinib]
In short: as §1

[2] = compound: NCC(=O)Nc1ccc(-n2nc(C(F)(F)F)cc2-c2ccc3c(ccc4ccccc43)c2)cc1
In short: as §1

Measured: log2 fold change

NFYC isoform 3 (UniProt Q13952)
inactive: vorinostat 0.15 | silmitasertib 0.363

NFRKB isoform 2 (UniProt Q6P4R8)
inactive: vorinostat -0.182 | silmitasertib -0.014 | [1] 0.101 | entospletinib 0.016

NECAP2 (UniProt Q9NVZ3)
inactive: [2] 0 | vorinostat 0.03 | silmitasertib -0.006 | [1] 0.007 | entospletinib 0.019

NKTR (UniProt P30414)
inactive: [2] 0.068 | vorinostat -0.029 | silmitasertib 0.094 | entospletinib -0.065

Two neighbouring entries from above, for reference:
NECAP2 (UniProt Q9NVZ3)
inactive: [2] 0 | vorinostat 0.03 | silmitasertib -0.006 | [1] 0.007 | entospletinib 0.019

NKTR (UniProt P30414)
inactive: [2] 0.068 | vorinostat -0.029 | silmitasertib 0.094 | entospletinib -0.065

(cont.)

NFE2L2 (UniProt Q16236)
inactive: [1] -0.003

NDRG2 isoform 6 (UniProt Q9UN36)
inactive: [2] -0.029 | vorinostat 0.037 | silmitasertib 0.083 | entospletinib 0.075

NGDN (UniProt Q8NEJ9)
inactive: vorinostat -0.293 | silmitasertib 0.056 | [1] -0.137 | entospletinib -0.149

NDUFV1 (UniProt P49821)
inactive: [2] 0.035 | vorinostat 0.051 | silmitasertib 0.031 | [1] 0.031 | entospletinib -0.006
